PubChem BioAssay AID485314 (National Center for Advancing Translational Sciences (NCATS), 2010)
The campaign covered roughly 340,000 compounds. About 4,500 (1.3%) were called active. Inconclusive means that the source gave no clear call. Such entries were picked first, then a sample of the others. The call rests on the fitted dose curve; in most records, active means well fitted inhibition curve with a large enough effect; inconclusive means small, poorly fitted or top-dose-only effect, or another doubt; inactive means no such curve, though single readings can be large or run the other way. Potencies of inconclusive entries are doubtful fits and often do not repeat.

These compounds were tested against DNA polymerase beta (Homo sapiens) (UniProt P06746) (assay: qHTS Assay for Inhibitors of DNA Polymerase Beta). Conditions: Pol beta primer extension/strand displacement, fluorescence kinetic; activity change, negative = inhibition: at 114 µM (top of the series).
Outline: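 Curves were derived by four-parameter Hill fits of normalized qHTS data. The kinetic fluorescent primer-extension read was taken at 0 and 10 min after 50 nM substrate, following a 15 min room-temperature preincubation of 10 nM enzyme with compounds.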
On the % scale 0 is the no-effect control and ±100 the full control effect; potency means the concentration at half of the fitted maximal effect.

Potency, active:
CC(=O)Nc1cccc(-c2nc3ccc(NC(C)=O)cc3[nH]2)c1 44.7 µM
CC1(C)Cc2c(C#N)c(N3CCN(C(=O)c4ccccc4Cl)CC3)nc(-c3ccco3)c2CS1 20 µM
CCCN(CCC)CCNC(=O)c1cc2c(-c3ccc(Cl)cc3)nn(C)c2s1 25.1 µM
COc1ccc2nc(NC(=O)c3nc(S(=O)(=O)Cc4ccccc4)ncc3Cl)sc2c1 5.62 µM
CCCCNC(=O)c1ccc2nc(-c3ccco3)c(-c3ccco3)nc2c1 20 µM
CCOC(=O)c1c(C)sc(-c2c(-c3cc(C)ccc3C)[nH]c3c2c(=O)n(C)c(=O)n3C)c1O 5.62 µM
CCN(CC)S(=O)(=O)c1cc(-c2nn(C)c(=O)c3ccccc23)ccc1C 44.7 µM
O=C(Nc1nnc(C2CC2)s1)C1Cc2ccccc2CN1S(=O)(=O)c1cccs1 (stereo not given) 11.2 µM
Cc1cc(/C=C(/C#N)c2nc3ccccc3[nH]2)c(C)n1-c1ccccc1C(=O)O 20 µM
C/C(=N\Nc1ccc(C(=O)O)cc1)c1ccc(Br)cc1 20 µM
O=C(Nc1nc(-c2ccncc2)cs1)c1ccco1 39.8 µM
O=C1/C(=C\c2ccco2)SC(=S)N1c1ccc(O)cc1 20 µM

Potency, inconclusive:
Cc1ccc(NC(=O)C2CCCN2S(=O)(=O)c2ccc3nc(-c4ccccc4)[nH]c3c2)cc1F (stereo not given) 63.1 µM [inhibitor, partial curve, poor fit]
COc1ccccc1-c1nnc(NC(=O)C(C)Sc2nncn2C)s1 (stereo not given) 0.794 µM [inhibitor, full curve, poor fit]
COc1cc(/C=C/C(=O)OCC(=O)Nc2cccc(Oc3ccccc3)c2)ccc1O 39.8 µM [inhibitor, single point]
CCC(C(=O)Nc1nc(C)cs1)c1ccccc1 (stereo not given) 39.8 µM [inhibitor, single point]
CCCC(=O)N1CCN(c2ccc(NC(=O)c3ccc(Br)o3)cc2)CC1 89.1 µM [inhibitor, single point]
CC(=O)Nc1ccc(S(=O)(=O)N2C(C)CCCC2C)cc1 (stereo not given) 0.447 µM [inhibitor, full curve, poor fit]
Cc1[nH]n(-c2ccccc2)c(=O)c1N=Nc1ccccc1 39.8 µM [inhibitor, partial curve, poor fit]
O=Cc1ccc(OCc2cccc(C(F)(F)F)c2)cc1O 89.1 µM [inhibitor, single point]
CC(=O)c1ccccc1NC(=O)CN1C(=O)CS/C1=C\c1nc(-c2ccc(C)cc2)cs1 31.6 µM [inhibitor, single point]
COc1ccc(NC(=O)c2cccnc2)c(OC)c1 39.8 µM [inhibitor, single point]
Cc1cccc(NC(=O)CSc2ccc(-c3cccnc3)nn2)c1 25.1 µM [inhibitor, single point]
Cc1cc(C(=O)Nc2ccccc2N2CCOCC2)ccc1[N+](=O)[O-] 35.5 µM [inhibitor, full curve, poor fit]
Cc1ccc(C)c(CN2C(=O)c3ccccc3S(=O)(=O)c3ccc(C(=O)N4CCc5ccccc54)cc32)c1 89.1 µM [inhibitor, single point]
O=C(Cc1cc(=O)[nH][nH]1)N/N=C/c1c(Cl)cccc1Cl 2.51 µM [inhibitor, full curve]
O=C(Nc1cnn(Cc2c(Cl)cccc2Cl)c1)c1ccc([N+](=O)[O-])cc1 39.8 µM [inhibitor, single point]
Cc1ccc2c(c1)N(C)/C(=C/c1cccc[n+]1CCO)S2 63.1 µM [inhibitor, single point]
CCN(CC)c1nc2cc(C)ccc2cc1/C=C(\C#N)C(N)=O 39.8 µM [inhibitor, single point]
O=C(c1ccccc1)c1ccc(OCCOCCN2CCN(Cc3ccccc3)CC2)cc1 31.6 µM [inhibitor, single point]
NC(=O)CC(NC(=O)c1cccc(Br)c1)c1ccc(N2CCN(c3ccccn3)CC2)c([N+](=O)[O-])c1 (stereo not given) 44.7 µM [inhibitor, partial curve]
Cc1ccc(C)c(NC(=O)CSc2nnc(-c3n[nH]c4ccccc34)o2)c1 15.8 µM [inhibitor, full curve, poor fit]
CSc1nc(N)n2nc(C(C)(C)C)cc2n1 39.8 µM [inhibitor, single point]
COc1cccc(C(=O)Nc2nnc(S(=O)(=O)N(C)Cc3ccc(F)cc3)s2)c1 79.4 µM [inhibitor, single point]
Cc1cc(C)c(C)c(OCCN2CCOCC2)c1 56.2 µM [inhibitor, partial curve]
CC1=CC(=C(C#N)C#N)c2ccccc2N1C 89.1 µM [inhibitor, single point]
Cc1cc2c(cc1C)C(c1ccsc1)CC(=O)N2 (stereo not given) 39.8 µM [inhibitor, single point]
COc1ccc2c(c1)c(C(C)=O)c(C)n2CCc1ccccc1 39.8 µM [inhibitor, single point]
Cn1nc(-c2ccc(OCC(=O)Nc3cccc(C(F)(F)F)c3)cc2)c2ccccc2c1=O 39.8 µM [inhibitor, single point]
Cc1[nH]ccc2c1[nH]c1cc(=O)ccc12 28.2 µM [inhibitor, full curve]
CC(=O)Nc1ccc(Nc2ncnc3c2cnn3-c2ccccc2)cc1 39.8 µM [inhibitor, partial curve, poor fit]
O=C1CCCC(O)=C1N=Nc1ccc(Cl)c(Cl)c1 8.91 µM [inhibitor, full curve, poor fit]
COc1ccc2nc(NC3=NC(c4ccccc4)CC(=O)N3)nc(C)c2c1 (stereo not given) 0.708 µM [inhibitor, full curve]
O=C(CC(Nc1ccccc1)c1ccc(F)cc1)c1ccccc1 (stereo not given) 5.01 µM [inhibitor, full curve, poor fit]
O=C(N1CCOCC1)N1CCC(c2nc(-c3ccc(S(=O)(=O)N4CCOCC4)cc3)no2)CC1 2.82 µM [inhibitor, partial curve]
CCCCCC(=O)N1CC2(CC(c3cccc(NC(=O)COc4ccc(Cl)cc4)c3)=NO2)C[C@@H]1C(N)=O (stereo not given in full) 89.1 µM [inhibitor, single point]
O=S(=O)(Nc1cccc2c1ccc1cccn12)c1cccs1 39.8 µM [inhibitor, full curve]
Cc1ccc(S(=O)(=O)C(C#N)c2nc3ccccc3nc2N2CCCCC2)cc1 (stereo not given) 2.51 µM [inhibitor, partial curve, poor fit]
C=C(C)COc1ccc2c(CC)cc(=O)oc2c1 79.4 µM [inhibitor, single point]
O=C(Nc1ccccc1Cl)c1ccc(S(=O)(=O)N2CCOCC2)cc1 2.51 µM [inhibitor, full curve, poor fit]
COc1ccc(Nc2nc(-c3cccc([N+](=O)[O-])c3)nc3ccccc23)c(OC)c1 0.141 µM [inhibitor, full curve]
Cc1cccc(Cn2c(C)c(C)c3cc(C(=O)NCc4ccco4)ccc32)c1 44.7 µM [inhibitor, partial curve, poor fit]

Activity change, negative = inhibition, inconclusive:
COc1ccc(CCN2C(=O)CC(N3CCN(C/C=C/c4ccccc4)CC3)C2=O)cc1OC (stereo not given) -32.6% [inhibitor]
Cc1noc(C)c1S(=O)(=O)N1CCN(c2ccc(Cl)cc2)CC1 -44.6% [inhibitor]

Activity change, negative = inhibition, inactive:
O=C(N/N=C1/CC2CCC1C2)c1cc2ccccc2cc1O (stereo not given) -24.1%
Cc1nc(-n2nc(C)c(Cc3ccc4c(c3)OCO4)c2C)sc1C(=O)Nc1cccc(Cl)c1 -4.77%
COc1ccc(-c2ccc(=O)n(Cc3ccccc3)n2)cc1 -26.9%
CCC(C(=O)Nc1nnc2n1CCS2)c1ccccc1 (stereo not given) 4.68%
Nc1nnc(CC(=O)Nc2ccccc2)s1 7.58%
O=C(CSc1nnc2scc(-c3ccc(F)cc3)n12)NCc1ccco1 11.6%
Cc1cccn2c(=O)c3cc(C#N)c(=NC(=O)c4cccs4)n(CC(C)C)c3nc12 -8.47%
Nc1ccc(C(=O)N/N=C/c2cn(Cc3ccc(F)cc3)c3ccccc23)cc1 -28.3%
Cc1cccc(C(=O)O/N=C(\N)c2ccccn2)c1 28.4%
CCOCCCNC(=O)c1ccc2c(c1)NC(=O)C(CS(=O)(=O)Cc1ccc(F)cc1Cl)N2 (stereo not given) -18.4%
Cc1cc(C)c(NC(=O)Cn2c(=O)n(-c3cccc(C(F)(F)F)c3)c(=O)c3c(C)c(C)sc32)c(C)c1 -12.1%
Cc1cccc(C2CC3(CC(C)(C)NC(=S)N3)Oc3cc(O)ccc32)c1 (stereo not given) -22%
CCOC(=O)NC1(NC(C)C)Oc2ccccc2O1 5.15%
COc1cc(/C=C2\SC(=S)N(NS(=O)(=O)c3ccccc3)C2=O)ccc1O -40%
CCN(C(=O)c1ccc2c(c1)N(Cc1cccc(Cl)c1)C(=O)c1ccccc1S2=O)c1ccccc1 (stereo not given) -26.3%
Cc1c(Cl)cccc1NC(=O)Cc1cccs1 18.8%

Pulled by structure from the list above:
Activity change, negative = inhibition, inactive:
CCOC(=O)NC1(NC(C)C)Oc2ccccc2O1 5.15%
Cc1cccc(C2CC3(CC(C)(C)NC(=S)N3)Oc3cc(O)ccc32)c1 (stereo not given) -22%
CCOCCCNC(=O)c1ccc2c(c1)NC(=O)C(CS(=O)(=O)Cc1ccc(F)cc1Cl)N2 (stereo not given) -18.4%
Cc1nc(-n2nc(C)c(Cc3ccc4c(c3)OCO4)c2C)sc1C(=O)Nc1cccc(Cl)c1 -4.77%
COc1cc(/C=C2\SC(=S)N(NS(=O)(=O)c3ccccc3)C2=O)ccc1O -40%
CCN(C(=O)c1ccc2c(c1)N(Cc1cccc(Cl)c1)C(=O)c1ccccc1S2=O)c1ccccc1 (stereo not given) -26.3%
